# Test results reported in PubChem BioAssay AID1671190 (National Center for Advancing Translational Sciences (NCATS), 2021).
# Protein sequences, listed by entry. Tags and fused reporters are not part of them.
# UniProt P18054, whole entry, looked up: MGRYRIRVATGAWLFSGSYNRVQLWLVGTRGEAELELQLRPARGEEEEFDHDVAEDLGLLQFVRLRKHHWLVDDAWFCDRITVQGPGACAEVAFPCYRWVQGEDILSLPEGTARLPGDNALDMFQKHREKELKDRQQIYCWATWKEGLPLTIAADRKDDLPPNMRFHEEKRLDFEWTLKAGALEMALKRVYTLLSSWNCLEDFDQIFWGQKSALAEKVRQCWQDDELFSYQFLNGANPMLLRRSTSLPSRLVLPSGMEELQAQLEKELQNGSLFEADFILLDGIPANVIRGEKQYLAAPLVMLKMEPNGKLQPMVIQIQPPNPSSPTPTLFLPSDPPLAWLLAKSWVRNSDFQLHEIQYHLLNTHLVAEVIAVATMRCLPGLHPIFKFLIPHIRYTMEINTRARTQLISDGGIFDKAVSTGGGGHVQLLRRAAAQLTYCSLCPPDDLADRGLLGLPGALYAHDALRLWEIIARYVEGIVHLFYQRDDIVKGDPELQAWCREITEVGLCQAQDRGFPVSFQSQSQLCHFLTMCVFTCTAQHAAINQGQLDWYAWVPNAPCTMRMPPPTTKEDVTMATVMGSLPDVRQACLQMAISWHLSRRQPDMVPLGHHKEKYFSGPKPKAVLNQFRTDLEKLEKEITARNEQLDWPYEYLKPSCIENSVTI
# About 6,100 (1.1%) of roughly 580,000 compounds were called active. Not shown: some 15% with an inconclusive outcome. The call rests on the fitted dose curve; in most records, active means well fitted inhibition curve with a large enough effect; inconclusive means small, poorly fitted or top-dose-only effect, or another doubt; inactive means no such curve, though single readings can be large or run the other way. The list shows a part of the results, in another mix than the full data. Entries without a call were filed so in the source.
# Biological target: Polyunsaturated fatty acid lipoxygenase ALOX12 (Homo sapiens) (UniProt P18054)
# Experiment: Primary qHTS assay for inhibitors of human arachidonate 12S-lipoxygenase (ALOX12): Round 2
# Settings: purified 12hLO, xylenol orange hydroperoxide absorbance; activity change, negative = inhibition: at 0.00344 µM (top of the series)
# Text: Assay Provider: Theodore R. Holman Ph.D. University of California, Santa Cruz, California Human lipoxygenase 12hLO is a member of the closely related lipoxygenase family of enzymes which catalyze the site-specific oxidation of arachidonic acid to various hormone precursor molecules and as such is a candidate for drug development in a variety of disease areas, such as cancer and inflammation. Inhibition of 12hLO activity was screened by utilizing arachidonic acid as a substrate. The extent of hydroperoxide product formation was measured by a secondary chromogenic reaction in which xylenol orange (XO, Sigma-Aldrich, cat. number 39,818-7) reacts with the ferric ions produced from the reaction between the hydroperoxide and ferrous ions. The Fe (III)-XO complex is characterized with red-shifted absorbance at 560 nm. A purified preparation of human 12hLO was supplied by Dr. Holman laboratory, University of California, Santa Cruz.
# PROTOCOL TABLE SEQUENCE No. (e.g., 1, 2, 3, etc.); […] (e.g., Cells, Incubation, Reagent, etc.); VALUE; DESCRIPTION 1; Enzyme; 3 uL; 150 nM 12hLO enzyme solution dispensed in 1536-well Greiner black, clear bottom plates. 2; Compound; 23 nL; compounds and controls were added. 3; Incubate; 15 min; room temperature. 4; Substrate; 1 uL; 40 uM arachidonic acid (final concentration). 5; Incubate; 30 min; room temperature. 6; Reagent; 4 uL; Fe-XO solution was added to each well. 7; Incubation; 30 min; room temperature 8; Detector; absorbance; Read 1 at 405 nm absorbance using ViewLux (Perkin-Elmer) CCD imager. 9; Detector; absorbance; Read 2 at 573 nm absorbance using ViewLux (Perkin-Elmer) CCD imager. NOTES (numbers refer to sequence above) 1; 150 nM 12hLO (final concentration) in buffer solution (25 mM Hepes, 0.01% Triton X-100, pH 7.0) was dispensed in columns 1, 2, 5-48. Column 1 is neutral (100% activity). Buffer only was dispensed in columns 3 and 4 as no enzyme negative controls. The plates were covered with metal lids with gas-exchange holes. 2; Compounds were pin transferred via a Kalypsys Pin Tool (Wako USA) in column 5-48. Control compound was transferred in column 2, titration of nordihydroguaiaretic acid (NDGA, Sigma-Aldrich, N5023) with top concentration of 20 mM in DMSO then 1:3 dilution in duplicate. Dilution factor of 23 nL into 4 uL final assay volume. 3; Covered assay plates were incubated for 15 min at room temperature. 4; Substrate was added to start the reaction; 40 uM arachidonic acid (Sigma-Aldrich, St. Louis, MO) was dispensed throughout the plate. 6; Chromogenic detection reagent solution (divalent iron/xylenol orange, Fe-XO) was added to each well: 200 uM xylenol orange, 300 uM ferrous ammonium sulfate prepared freshly in 50 mM sulfuric acid. 8, 9; Two absorbance readouts were obtained at 405 nm and at 573 nm using a ViewLux high-throughput CCD plate imager (Perkin-Elmer). The 573 to 405 (Read 2 / Read 1) absorbance ratio was used to compute reaction progress.
# On the % scale 0 is the no-effect control and ±100 the full control effect; potency means the concentration at half of the fitted maximal effect.
SMILES,Potency,"activity change, negative = inhibition"
NC(c1ccccc1)c1csc(Nc2cc(Oc3ccccc3)ncn2)n1 (centres undefined),active: 35.5 µM,–
C#CCOCCOCCOCCNc1nc(N2CCN(C(=O)[C@H]([C@@H](C)CC)n3cc(CCCN=C(N)N)nn3)CC2)nc(N2CCN(C(=O)[C@H]([C@@H](C)CC)n3cc(CCC(=O)O)nn3)CC2)n1,active: 10 µM,–
CC1(C)[C@@H](OC(=O)CCC(=O)O)CC[C@]2(C)[C@H]3C(=O)C=C4[C@@H]5C[C@@](C)(C(=O)O)CC[C@]5(C)CC[C@@]4(C)[C@]3(C)CC[C@@H]12,–,3.97%
Cc1cccc(N/N=C/c2ccncc2)c1,active: 44.7 µM,–
CC(=O)OCC(=O)[C@@]1(OC(C)=O)[C@@H](C)C[C@H]2[C@@H]3C[C@H](F)C4=CC(=O)C=C[C@]4(C)[C@@]3(F)[C@@H](O)C[C@@]21C,–,24.9%
CC(N=C(NC#N)Nc1ccncc1)C(C)(C)C (centres undefined),–,-11%
CCCCOC(=O)CC(CC(=O)OCCCC)(OC(C)=O)C(=O)OCCCC,–,18%
CCCOc1ccc(C(=O)OCCN(CC)CC)cc1N,–,34.5%
Cc1cc(C)cc(NC(=S)Nc2ccc(Cl)c(Cl)c2)c1,active: 39.8 µM,–
FC(F)(F)c1ccccc1/C=N/NC(=S)NCc1ccccc1,active: 39.8 µM,–
CN(C)CC/C=C1/c2ccccc2COc2ccc(CC(=O)O)cc21,–,8.88%
COCCNc1cc(-c2c(C)noc2C)ncn1,active: 39.8 µM,–
CCCCCN=C(N)N/N=C/c1c[nH]c2ccc(OC)cc12,–,12.4%
O=C(c1ccccc1)c1ccc2n1CCC2C(=O)O (centres undefined),–,-0.123%
CC(C)(O)c1ccccc1CC[C@@H](SCC1(CC(=O)O)CC1)c1cccc(/C=C/c2ccc3ccc(Cl)cc3n2)c1,–,-3.3%
Nc1ccc(C(=O)OCC(O)CO)cc1 (centres undefined),–,-25.1%
C/C(=N\Nc1nc(-c2ccccc2)cs1)c1cccs1,active: 44.7 µM,–

# Single records (already shown). Order of values: Potency	activity change, negative = inhibition
# `C#CCOCCOCCOCCNc1nc(N2CCN(C(=O)[C@H]([C@@H](C)CC)n3cc(CCCN=C(N)N)nn3)CC2)nc(N2CCN(C(=O)[C@H]([C@@H](C)CC)n3cc(CCC(=O)O)nn3)CC2)n1` reads active: 10 µM	–
# `CC(=O)OCC(=O)[C@@]1(OC(C)=O)[C@@H](C)C[C@H]2[C@@H]3C[C@H](F)C4=CC(=O)C=C[C@]4(C)[C@@]3(F)[C@@H](O)C[C@@]21C` reads –	24.9%

# The list continues:

SMILES,Potency,"activity change, negative = inhibition"
CC(=O)Oc1cccc(C)c1,–,10.2%
S=c1[nH]nc(-c2ccccc2)n1C1C=CCCC1 (centres undefined),active: 44.7 µM,–
COc1cc(OC)nc(O[C@H](C(=O)O)C(OC)(c2ccccc2)c2ccccc2)n1,–,-13.1%
Oc1ccc(Nc2nc(-c3ccc(F)cc3F)cs2)cc1,active: 7.94 µM,–
NC1CCN(c2nc3c(cc2F)c(=O)c(C(=O)O)cn3-c2ccc(F)cc2F)C1 (centres undefined),–,25.4%
NC(=S)N/N=C/C1=C(c2ccccc2)C2C=CC1C2 (centres undefined),active: 8.91 µM,–
Nc1c2c(nc3ccccc13)CCCC2O (centres undefined),–,2.05%
CN(C)C(=O)Oc1ccc[n+](C)c1,–,-4.44%
CCCC(=O)Nc1ccc(O)c(C(C)=O)c1,–,55.8%
Cc1ccc(C)n1C1C(=O)N(Cc2ccc(C(C)C)cc2)c2ccc(OC(F)(F)F)cc21 (centres undefined),active: 15.8 µM,–
CC(=O)Nc1ccc(S(=O)(=O)Nc2cc(C)on2)cc1,–,-30.5%
O=C(O)CP(=O)(O)O,–,6.21%
Cc1cc(C)nc(SCC(=O)Nc2ccccc2C(N)=O)n1,active: 50.1 µM,–
Cc1ccc(N(CC2=NCCN2)c2cccc(O)c2)cc1,–,-27.1%
S=C(NCCc1ccccc1)N1CCC2CC1c1cc(-c3ccc4c(c3)OCO4)ccc12 (centres undefined),active: 28.2 µM,–
Cc1c(Cl)cccc1Nc1ccccc1C(=O)O,–,5.18%
c1ccc(C(O[C@H]2CCCN(CCc3ccc4c(c3)OCO4)C2)c2ccccc2)cc1,–,28.6%
